# Source: PubChem BioAssay AID652054 (National Center for Advancing Translational Sciences (NCATS), 2013)
# The chains behind the UniProt entries cited, without tags or fusion partners.
# UniProt P35462, whole entry, looked up: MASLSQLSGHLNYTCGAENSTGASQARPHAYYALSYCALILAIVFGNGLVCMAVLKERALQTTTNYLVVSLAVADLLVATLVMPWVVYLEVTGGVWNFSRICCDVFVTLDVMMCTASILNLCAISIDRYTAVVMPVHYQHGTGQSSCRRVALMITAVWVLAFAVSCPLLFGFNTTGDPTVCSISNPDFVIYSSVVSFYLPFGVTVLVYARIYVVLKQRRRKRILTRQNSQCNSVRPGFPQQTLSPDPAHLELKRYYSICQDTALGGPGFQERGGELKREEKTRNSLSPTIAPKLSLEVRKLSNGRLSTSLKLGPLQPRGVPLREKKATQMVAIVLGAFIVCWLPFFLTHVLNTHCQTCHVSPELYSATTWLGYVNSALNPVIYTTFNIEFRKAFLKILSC
# The whole screen tested about 360,000 compounds, of which about 9,100 (2.5%) were called active. Inconclusive means that the source gave no clear call. Such entries were picked first, then a sample of the others. No stated cut-off is given here; in the data, active means max response below about -50%; inconclusive means no clear call, values can overlap the other calls; inactive means above that.
# Target: D(3) dopamine receptor (Homo sapiens) (UniProt P35462)
# Assay: qHTS of D3 Dopamine Receptor Antagonist: qHTS
# Conditions: D3R cells, DiscoveRx beta-arrestin luminescence, antagonist mode; active compounds read low
# Method in brief: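 Cells expressing the human receptor were seeded at 1500 cells/well, incubated overnight at 37 degrees C in 5% CO2, then exposed to library compounds with dopamine controls for 90 minutes at 37 degrees C before luminescent detection.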
# On the % scale 0 is the no-effect control and ±100 the full control effect.
row,SMILES,"max response, negative = inhibition"
1,COc1ccc(N(Cc2ccccc2)S(=O)(=O)c2cccc(C(=O)Nc3ncccc3C)c2)cc1,inconclusive: -32.6%
2,CC(=O)c1ccc(N2CCN(S(=O)(=O)c3ccc4c(c3)CC(C)N4C(C)=O)CC2)cc1 (centres undefined),inactive: -1.07%
3,CN1CCN(C2Cc3cc(F)ccc3Sc3ccc(Cl)cc32)CC1 (centres undefined),active: -120%
4,CCOc1ccc(-n2c(O)c(/C=N/Nc3nnc(C)c(=O)[nH]3)c3ccccc3c2=O)cc1,inconclusive: -34.6%
5,Cc1ccccc1OCC(O)CN1CCC(C)CC1 (centres undefined),active: -60.2%
6,COc1ccc(CNC(=O)C(=O)NCC2OCCN2C(=O)c2ccc(OC)cc2)cc1 (centres undefined),inconclusive: -34%
7,Cc1cc(N2CCN(C(C(=O)NC3CCCC3)C(C)C)CC2)c2ccccc2n1 (centres undefined),inactive: -5.55%
8,Fc1ccc(C2Nc3cccc4cccc(c34)N2)cc1,active: -74.9%
9,O=C(O)c1ccc(S(=O)(=O)NC2CCCCC2)cc1,active: -59.4%
10,Cc1ccccc1OCc1nnc(SCCN2CCCC2)n1-c1ccccc1,inconclusive: -31.7%
11,O=C(NC(=S)Nc1cc([N+](=O)[O-])ccc1O)C1CC1,inconclusive: -38.7%
12,CCOC(=O)COc1ccc(S(=O)(=O)Nc2ccc(C)cc2)cc1,inactive: 26.7%
13,COc1cc(NC(=O)c2ccc(Br)o2)c(C(=O)O)cc1OC,inconclusive: -38.2%
14,CCCC(C)(C)C(=O)N1CCC1(C)C(=O)Nc1cccc(OC)c1 (centres undefined),inactive: 16.6%
15,O=C(NC1CCCc2c1cnn2-c1ccccc1F)c1ccccc1N1CCOCC1 (centres undefined),inactive: 5.78%
16,CCN(CC)S(=O)(=O)c1cc(NC(=O)C2CC(=O)N(Cc3ccccc3)C2)ccc1Cl (centres undefined),inactive: 30.4%
17,COc1cccc2sc(N)nc12,inconclusive: -36.4%
18,CN1CCN(CCOC2Cc3ccccc3Sc3ccc(Cl)cc32)CC1 (centres undefined),active: -62.7%
20,Oc1ccc2oc3c(c2c1/C=N/n1cnnc1)CCCC3,inconclusive: -45.6%
21,Cc1ccc(NC(=O)C(C)OC(=O)c2ccc(Cl)nc2)cc1S(=O)(=O)N1CCOCC1 (centres undefined),inactive: -1.47%
22,COc1cc(/C=N/n2c(C)n[nH]c2=S)ccc1OCc1ccccc1,inactive: 4.09%

row,SMILES,"max response, negative = inhibition"
1,CC1=C(C)C(=O)C(N2CCOCC2)=CC1=O,inconclusive: -38.9%
2,CCCCCC(O)CCc1n[nH]c(=S)n1-c1ccccc1 (centres undefined),inconclusive: -31.1%
3,CCCCNC(=O)c1ccc2nc(-c3ccco3)c(-c3ccco3)nc2c1,inactive: -14.6%
4,CCOC(=O)/C(=C\c1ccc([N+](=O)[O-])cc1)C(=O)c1cc(C(C)=O)c(Nc2ccccc2)s1,inconclusive: -48.8%
5,O=C(c1cccc(F)c1)N1CCC(N2CCCCCC2)CC1,active: -73.6%
6,Cc1cc(C)cc(-c2nnc(SCC(=O)N3CCN(C(=O)c4ccco4)CC3)o2)c1,inconclusive: -43.9%
7,CCCN(CCC)CCNC(=O)c1cc2c(-c3ccc(Cl)cc3)nn(C)c2s1,inconclusive: -38.3%
8,COCCN1CCN(Cc2cn(C)nc2-c2ccc(Oc3ccccc3)cc2)CC1,inactive: -9.31%
9,CN(CCc1ccccc1)C1CCCN(S(=O)(=O)c2cccc(F)c2)C1 (centres undefined),active: -63.4%
10,CCOc1ccc2nc(NC(=O)CSc3nc4c(c(=O)n(C)c(=O)n4C)n3C(C)C)sc2c1,inactive: 97.3%
11,COc1ccc(-c2cn3nc4c(nc3n2)CCCC4)cc1,inconclusive: -39%
12,O=Cc1ccc(OCc2cccc(C(F)(F)F)c2)cc1O,inactive: -8.89%
13,Cc1ccc(NC(=O)CSc2nc(=O)n(CCCN3CCOCC3)c3c2CCCC3)cc1F,inactive: 6.84%
14,N#C/C(=C\c1cccc(Br)c1)C(=O)N1CCCCC1,inactive: -23.1%
15,CCN(CC)CCNC(=O)c1cc(-c2ccc(Br)s2)nc2ccccc12,inconclusive: -34.9%
16,CCN1CCCC1CN(Cc1cc2ccc(C)cc2[nH]c1=O)C(=S)Nc1ccc(OC)cc1OC (centres undefined),inconclusive: -44.7%
17,CC(C)OC(=O)Nc1ccc(-c2ccc(NC(=O)OC(C)C)cc2Cl)c(Cl)c1,inactive: 52.3%
18,CC(=O)c1cccc(NC(=O)c2cc(C)nn2-c2ccccc2)c1,inconclusive: -44.3%
19,O=C(COC(=O)C1CCCCC1)Nc1ccc(N2CCCCC2)cc1,inconclusive: -43.8%
20,O=C(NC1CCCCC1)NC1CC2CCCC(C1)N2C1CCCC1 (centres undefined),inconclusive: -44.4%
21,O=C(N/N=C1/CC2CCC1C2)c1cc2ccccc2cc1O (centres undefined),inactive: -7.61%
22,COc1cc(NC(=S)NCc2cccnc2)c(OC)cc1Cl,inactive: -0.31%

# An excerpt from above in order of molar mass, smallest number first:
row,SMILES,"max response, negative = inhibition"
11,COc1ccc(-c2cn3nc4c(nc3n2)CCCC4)cc1,inconclusive: -39%
19,O=C(COC(=O)C1CCCCC1)Nc1ccc(N2CCCCC2)cc1,inconclusive: -43.8%
3,CCCCNC(=O)c1ccc2nc(-c3ccco3)c(-c3ccco3)nc2c1,inactive: -14.6%
13,Cc1ccc(NC(=O)CSc2nc(=O)n(CCCN3CCOCC3)c3c2CCCC3)cc1F,inactive: 6.84%
